# Assay results published in US20140134647A1 (LA JOLLA INSTITUTE FOR ALLERGY AND IMMUNOLOGY, published 2014).
# Amino acid sequences for entries named in this document (tags omitted). A change or cut given only in a name is not applied to a line headed by its entry.
# UniProt O14763: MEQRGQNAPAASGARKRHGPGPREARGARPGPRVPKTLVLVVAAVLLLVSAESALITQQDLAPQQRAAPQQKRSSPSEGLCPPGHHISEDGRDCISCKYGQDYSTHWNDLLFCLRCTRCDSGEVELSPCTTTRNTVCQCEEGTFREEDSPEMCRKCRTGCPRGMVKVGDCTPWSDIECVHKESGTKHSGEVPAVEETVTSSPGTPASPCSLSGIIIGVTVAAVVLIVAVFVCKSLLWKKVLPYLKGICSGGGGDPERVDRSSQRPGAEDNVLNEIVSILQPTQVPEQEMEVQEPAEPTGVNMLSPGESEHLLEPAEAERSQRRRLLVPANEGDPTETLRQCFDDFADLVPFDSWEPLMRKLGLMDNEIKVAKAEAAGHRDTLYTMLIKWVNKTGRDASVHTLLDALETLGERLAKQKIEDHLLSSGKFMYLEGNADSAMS
# Results are given in words; binding and its absence hold for the method and conditions named. Some binding calls cover weakened binding; strength is not graded here. Sequences can lack the tags named with a protein.
# B1: UL141-Fc (UL141 ectodomain fused to the Fc region of human IgG1) (Fc fusion)
# chain: DIAEKMWAENYETTSPAPVLVAEGEQVTIPCTVMTHSWPMVSIRARFCRSHDGSDELILDAVKGHRLMNGLQYRLPYATWNFSQLHLGQIFSLTFNVSTDTAGMYECVLRNYSHGLIMQRFVILTQLETLSRPDEPCCTPALGRYSLGDQIWSPTPWRLRNHDCGMYRGFQRNYFYIGRADAEDCWKPACPDEEPDRCWTVIQRYRLPGDCYRSQPHPPKFLPVTPAPPADIDTGMS
# Biological target: human TRAIL-R2:Fc (extracellular domain of human TRAIL-R2 fused to human IgG constant domain, from 293T cells) (human) (UniProt O14763)
# Assay: binding assay (ELISA-based)
binder,measurement,value
B1,binding,binds
